From EP2835136A1, “Somatostatin Receptor Modulator for the treatment of infertility” (PregLem S.A., priority 2013, dated 2015)
Part of at least one peptide drawing is inferred or uncertain, most often the ends. Bridge positions count the residues as written; N and C are the ends. Square brackets hold non-standard residues; d marks the D form. Peptide text beside a SMILES is read from it. Phe(4-Cl) = N[C@@H](Cc1ccc(Cl)cc1)C(=O)O; 2Nal = N[C@@H](Cc1ccc2ccccc2c1)C(=O)O; 4Pal = N[C@@H](Cc1ccncc1)C(=O)O; NMeK = CN[C@@H](CCCCN)C(=O)O

Chains of the proteins cited; added tags and fusions are not shown. Lines headed by an entry give the natural chain unless they say otherwise; changes in a name come on top.
UniProt P30874: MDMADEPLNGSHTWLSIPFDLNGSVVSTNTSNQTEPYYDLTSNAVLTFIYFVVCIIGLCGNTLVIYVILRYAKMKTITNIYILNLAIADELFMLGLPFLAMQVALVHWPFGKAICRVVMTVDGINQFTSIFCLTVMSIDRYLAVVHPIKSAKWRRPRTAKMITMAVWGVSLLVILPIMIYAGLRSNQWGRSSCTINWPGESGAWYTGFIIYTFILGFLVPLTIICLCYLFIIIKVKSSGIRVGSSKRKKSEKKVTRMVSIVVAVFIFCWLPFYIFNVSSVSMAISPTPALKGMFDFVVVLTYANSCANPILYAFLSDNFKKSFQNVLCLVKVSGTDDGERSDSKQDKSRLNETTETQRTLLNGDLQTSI
UniProt P35346: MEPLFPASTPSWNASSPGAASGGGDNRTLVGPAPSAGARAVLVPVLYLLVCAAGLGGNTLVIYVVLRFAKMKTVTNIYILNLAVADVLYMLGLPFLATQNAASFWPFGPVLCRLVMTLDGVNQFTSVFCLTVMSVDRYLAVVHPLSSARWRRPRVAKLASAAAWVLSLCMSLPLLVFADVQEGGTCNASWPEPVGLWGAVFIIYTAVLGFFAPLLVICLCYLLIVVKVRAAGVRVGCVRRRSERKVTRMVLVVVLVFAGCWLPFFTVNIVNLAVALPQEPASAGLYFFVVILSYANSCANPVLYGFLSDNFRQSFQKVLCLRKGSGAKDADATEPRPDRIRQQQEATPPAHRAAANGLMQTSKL

Legend:
SSTR2 = SSTR2 (Homo sapiens, UniProt P30874); assay: in vitro functional assay (calcium mobilisation), SSTR2; assay type: cell-based
SSTR5 = SSTR5 (Homo sapiens, UniProt P35346); assay: in vitro functional assay (calcium mobilisation), SSTR5; assay type: cell-based
ovarian follicles = assay: main PD study: ovarian reserve assessment, histological follicle count after 90 days of dosing; assay type: in vivo, cynomolgus monkeys; details: 90 day treatment, compared to control animals
[1] = tested on: postnatal day 4 rat ovaries; assay: rat ovarian organ culture, histological analysis of primordial follicle development; assay type: cell-based; details: 4-day post-natal rat ovaries cultured for 10 days
somatostatin receptors = details: subtype not specified; reported in WO2005034989 to be an antagonist of the somatostatin receptors; cited from earlier work
[2] = low dose 0.4mg/kg SC twice daily

Structure (SMILES)	Functional assay (Calcium mobilisation) (SSTR2)	Functional assay (Calcium mobilisation) (SSTR5)	proportion of atresia in the resting follicle population (ovarian follicles; high dose 2.0mg/kg SC twice daily)	proportion of primary, secondary and pre-antral and antral follicles (ovarian follicles; [2])	proportion of primordial follicles (ovarian follicles; [2])	effect on primordial follicle development [1]	Functional assay (Calcium mobilisation) (somatostatin receptors)
C[C@@H](O)[C@@H]1NC(=O)[C@H](CCCCN)NC(=O)[C@@H](Cc2c[nH]c3ccccc23)NC(=O)[C@H](Cc2ccncc2)NC(=O)[C@H](NC(=O)[C@@H](N)Cc2ccc(Cl)cc2)CSSC[C@@H](C(=O)N[C@@H](Cc2ccc3ccccc3c2)C(N)=O)NC1=O [Compound "A", Cpa-[D-Cys-4-Pal-D-Trp-Lys-Thr-Cys]-2-Nal-NH2]	Strong antagonist of SSTR2	Agonist of SSTR5	reduction of the proportion of atresia in the resting follicle population	increase of the proportion of primary, secondary and pre-antral and antral follicles	reduction of the proportion of primordial follicles	–	–
C[C@@H](O)[C@@H]1NC(=O)[C@H](CCCCN)N(C)C(=O)[C@@H](Cc2c[nH]c3ccccc23)NC(=O)[C@H](Cc2ccncc2)NC(=O)[C@H](NC(=O)[C@@H](N)Cc2ccc(Cl)cc2)CSSC[C@@H](C(=O)N[C@@H](Cc2ccc3ccccc3c2)C(N)=O)NC1=O [Compound "B", Cpa-[D-Cys-4-Pal-D-Trp-N-Me-Lys-Thr-Cys]-2-Nal-NH2, reference compound] (H-[Phe(4-Cl)][dC][4Pal][dW][NMeK]TC[2Nal]-NH2; disulfide 2-7)	–	–	–	–	–	no significant effect	Antagonist
